Test results reported in the supplement of paper PMC3334620.
In all, about 33,000 sequences were measured (“E-score (-0.5 to 0.5)”: median about -8e-05, highest 2% from about 0.23 on). Some of the results follow.

Biological target: T1, Nrg2 (UniProt P38082)
T1 sequence: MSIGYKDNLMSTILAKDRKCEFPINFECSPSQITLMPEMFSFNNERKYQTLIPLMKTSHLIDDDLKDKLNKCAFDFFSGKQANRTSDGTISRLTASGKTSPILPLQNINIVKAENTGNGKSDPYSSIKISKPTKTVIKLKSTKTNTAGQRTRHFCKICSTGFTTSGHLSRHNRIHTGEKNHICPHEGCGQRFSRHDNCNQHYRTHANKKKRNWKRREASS
Assay: PBM E-score (8-mer binding enrichment) (E-score (-0.5 to 0.5)); higher = stronger / more preferred TF binding
Conditions: protein concentration: 100 nM; construct: GST-full length
In short: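 Each ungapped eight-base word and its reverse complement, pooled, received an E-score from the Universal PBM Analysis Suite. Underlying scans, normalised with masliner, recorded fluorescent anti-GST bound to GST-tagged yeast transcription factors. These were applied at about 100-200 nM to universal all-10-mer Agilent arrays double-stranded by primer extension.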

Sequence	PBM E-score
TACAATGA	-0.0688
GGTGAGGA	-0.121
AATCGCCC	-0.00062
AGGATCAT	-0.0592
GCGGGGTA	0.0152
AGCCCGGG	-0.114
GTCCTGAA	-0.0502
ATGCGGCG	0.0328
AATCCAGA	0.119
CAGAAGAA	-0.0182
AACATTCT	0.0588
CTGGACAC	-0.138
AAACTGTT	0.137
AACTCGTG	0.172
AGCAACTG	0.0717
ACTAAAAT	0.141
TCGGACGA	0.169
CTATTCCA	0.167
ATAGGGAA	-0.11
GGCACTCA	-0.181
CAGCATGC	0.0425
ATGGCTCG	0.063
ATCCTTCC	-0.249
TGCGCGCA	0.211
CTCACTCA	-0.0512

Sequence	PBM E-score
CGACAAGA	0.191
CACCGCTG	-0.104
AGAACTAC	0.0806
GAAGCCAA	-0.0658
ATTAATGC	0.0582
CGCAAAGA	0.111
CACAAGAG	0.14
GCTGCTCA	-0.114
ATGGATCG	0.0772
ACCCGCTC	-0.19
GAATGCAC	0.0486
TAAGATTA	-0.0227
CTCGACGC	0.0222
CCATCTAC	0.0771
CCAGATGG	-0.0627
CGGAAATC	-0.0345
ACTATAGC	-0.094
ACGTTCAC	-0.135
CTGTACAC	0.0438
CAATTACA	0.165
ACCACCGC	0.0124
CCGGACAG	0.0654
CATAGAGA	-0.0297
CCCGGAAG	-0.084
CCCGCCTC	-0.122

Sequence	PBM E-score
AGACGCTA	-0.138
AATGGCAA	-0.0281
ATAGCGGC	0.00138
ATATTAGC	0.129
GGTAGGAC	-0.0944
AGGTCACG	-0.164
AATGACAC	0.0228
CCTAGCAC	-0.122
AGAGCTCC	-0.192
ACAAACGG	0.186
ATACAACA	0.246
GTAGGCTA	-0.139
ATCGGCAG	0.0895
ACTCACTA	0.102
GGCCCCTA	0.0271
CTTTAGCC	-0.00956
CTGTGAAC	0.0404
CGTTCGTC	0.152
CATCGTGA	-0.185
ATAGTGGA	0.0767
GAGATGCC	-0.0159
ATCAATAC	0.136
GACAACGA	0.131
TAGGTCGA	-0.0386
CCCTTATC	0.156

Sequence	PBM E-score
ATGAAAAA	0.147
AAGGACGC	0.125
ACCGGTCT	-0.319
AGTTTCAG	-0.0621
ACGGCTAC	-0.0414
CCGGACCC	0.0932
CAGTTAAG	0.117
ACATTCGC	0.0444
AAGAGTAG	-0.00063
AAGCGCGT	0.0191
TGAGGAAA	-0.0852
CGTGAAGC	-0.101
ACCAACGT	-0.0856
AAGTGGGT	0.0971
ATCAGGTA	-0.0349
AGCCTAAA	-0.0539
CCCTGTCG	0.185
AAGTGGAC	-0.0892
ATAGTGAG	-0.0619
CACATGCA	0.0613
AAGGGGAC	0.0615
ACATGCGC	0.182
AATAAATT	0.215
TGCTATAA	-0.0684
ACGCGCTC	0.154

Look-ups from the results shown:
PBM E-score with AATAAATT is entered as 0.215
PBM E-score with AAGAGTAG is entered as -0.00063
PBM E-score with ACATTCGC is entered as 0.0444

Carrying on.

Sequence	PBM E-score
GTAATCTA	0.225
CACCATGG	-0.215
ATCTACAA	-0.0413
TGAAGTAA	-0.0936
AAAAGATC	-0.0177
AGCGCCAC	-0.11
ATCAGGAG	-0.0827
GAGCTCCC	0.0119
ACTTAACC	-0.0358
CGGCGACC	-0.0226
CTTATTCC	0.0106
AGCTTCAC	0.0099
TACCTGGA	0.0424
ATACAGAC	0.0805
ATAGAGAC	-0.0374
GTAGATCA	0.196
GAGATAAC	0.0987
CGAGTAGC	-0.0185
GTAAGTAA	-0.011
AGGCATAC	0.0524
ACATTCAA	0.069
AATAACCT	-0.0751
GAGTGTCC	0.00608
AATGGCCC	-0.223
CGGAATGC	0.133

Sequence	PBM E-score
ACGTCACG	-0.0893
CCATCATA	-0.108
GAGGTGAC	0.133
AGCTTACC	-0.148
GAGACAAC	0.16
AAAGCAGT	0.201
CAGACCTG	-0.119
AACGAGGG	-0.0046
CTTATCTC	-0.0296
AGGTTAAT	-0.0899
ACTCAGAA	0.157
GCTGTACC	-0.0883
CCGGGACA	0.00621
AAGGTGCG	-0.0555
AGGATTAG	-0.114
CGCACGCC	-0.0435
ATTTGTTC	0.272
ACTCTCTG	0.0221
GGTCGTAA	-0.089
AACTCTTA	0.0494
GGCCCGAC	-0.0434
ATGTATTA	-0.041
CGCACCGC	-0.207
ATCGAGGA	0.0639
GACATCGA	-0.206

Sequence	PBM E-score
GTTACGGA	-0.252
ACACTCAA	0.152
TACTCGCA	0.172
AAGCTACC	0.0567
AATGCCAA	0.156
ACCTGCCC	-0.061
AAACAAGC	0.0481
AACGGTCC	-0.0665
GCTATACC	-0.0179
AGCACCTG	-0.127
CGCTCACC	0.0628
ATCAGCAA	0.0508
AAAGACCC	0.117
ATGCTTGA	0.116
TCGATCCA	-0.0926
ATGCGCGA	0.00379
ATCACAAG	0.0563
ACTGGAGA	-0.0547
AGGTTTAC	-0.13
AGAGGACT	-0.3
AAGTACAA	0.0952
CTCCCCTC	-0.0594
CACGACAA	-0.033
GGGTATCA	0.144
ATCCGATA	0.00821

Sequence	PBM E-score
CTCTTTTC	-0.0184
CTGAGAAA	-0.0494
AAGATGCG	0.19
CTCCCGGA	-0.111
AACACGAA	0.205
GACGTGTA	-0.121
GAAGGCTA	-0.185
CTATGAAC	-0.0583
AACACCAC	-0.0785
GCTGAAAA	0.114
CGGATCCA	0.161
AGTAGTCA	-0.0218
GCGATCAC	-0.118
AAAAATAT	0.101
CCAACCTC	0.13
GGCTCAAA	-0.121
ACTCGCCC	-0.0739
CTTGGCGA	-0.26
AAGAGCTA	0.125
CAAGGATG	-0.154
AGACCAAC	0.0901
GTTGCAAC	0.122
CTACATAA	-0.187
CATAGGCC	0.027
ACTATTAC	0.106

Another view of part of the listing above:
CTCTTTTC
  PBM E-score = -0.0184
AAGATGCG
  PBM E-score = 0.19
GACGTGTA
  PBM E-score = -0.121
CTATGAAC
  PBM E-score = -0.0583

(further entries)

Sequence	PBM E-score
CCTGGAGC	-0.0529
CTAAAGTC	-0.22
TATAACCA	0.0239
ACATTTGA	0.142
TAAGCGAA	0.0348
AATCTTGC	0.0892
ACGGCCGG	-0.144
AGCCATTA	0.116
ACCATCGA	0.0748
GTCAGCAA	0.149
ACACGTTC	-0.0112
TGACATCA	0.232
AAGAAACC	0.0186
TAATTAGA	0.132
AATGCCGG	-0.00349
TAACCGTA	-0.121
GCTATTCA	0.067
GGACCCAA	-0.00982
ATCCAGGG	0.349
CGTCGCCA	0.00082
CTGCCTAC	0.0534
AGTCCGGG	-0.218
GCCAGCTA	-0.0352
GGCCGGAC	-0.0527
CGGGTGAA	0.16

Sequence	PBM E-score
CCCGCGCG	0.178
GAGAGAAA	0.0525
GACTTTGC	0.0651
AAAACATA	-0.0249
AGTATCTC	0.038
AATACGTG	-0.0869
GACGGATC	-0.153
ATTGATTG	0.142
ATAAATTG	0.272
GCTTTAAC	0.029
ACGCTATG	0.133
CTAGGATA	-0.122
CGTGAACG	-0.219
CCATTCCC	0.0857
AAAACGTA	-0.0659
CGTTCACC	-0.11
AACGGCTG	-0.167
AAATTGGC	-0.012
CCATACAC	0.0831
AAGCCACG	-0.00093
AGCGCGAG	0.0635
CTTAAAAG	-0.176
TAATCCGA	-0.0807
CGAGATAG	0.0116
AAGTTAGA	0.2

Sequence	PBM E-score
ACAAGGAG	0.0537
ATTCGCAG	0.216
ACAAGATG	0.0775
AAGTGCAT	0.00679
ACTATCTG	-0.0171
CCCTCCAA	0.0557
AGGCTCAT	-0.141
ACCAGAAA	0.041
TCGAAGAA	-0.0208
ACAGAAAT	0.0336
CCCAGTAA	0.0774
ACCTGTAA	0.0427
CTTTATGC	0.0879
GCGTTAAC	-0.0482
TTGTAAAA	-0.0338
ACATCGAG	-0.0644
ATTGGATC	0.105
CGGGAGGC	-0.378
ACTAATCC	-0.0312
TGGTACAA	0.0851
GCCTGCCC	-0.117
TATTATGA	0.103
CTGAGTTA	0.0184
AACCGCGG	0.182
AAGCGCCT	-0.0308

Sequence	PBM E-score
GAGGGCCC	0.151
CACTTTGA	-0.219
TAGGCATA	-0.0623
GCATTGGC	-0.284
GCAATGTA	-0.0648
ACCCCTGC	0.066
CGAATTTA	0.127
AGCCAACA	-0.0605
ATCTCAGG	0.193
AGAGCGAT	-0.144
ACGCGTGC	-0.0292
AGGGTGGG	0.192
ACCAAAGC	0.132
ATGATTTG	0.0998
CATGTTAG	-0.178
AGCCGGCA	9e-05
GCACGTCA	-0.196
CCTACAAC	0.189
ATCACGTA	-0.0509
GCCACACC	-0.0199
ATTTGTAG	0.156
AACTGTTC	0.0794
GAAATCGC	0.0997
ACGCGCAG	0.025
CCCCCTAG	-0.358

Sequence	PBM E-score
CTGGAGAA	-0.161
CAATTCGG	0.0993
ACTCATCT	0.0632
GATACCCC	0.0656
AATCCAGC	-0.13
CCTATGTC	0.0697
CCACACTA	0.115
AGCCCCAA	0.0372
TCATGCAA	0.192
CTGAATAC	0.146
AAGTCGAT	-0.0685
AAATCTCC	-0.204
CAGAAAAG	0.0119
CAGATAGG	-0.0361
AGCGATAC	-0.0406
AACTCACT	-0.0514
TCCCCGCA	-0.0603
CGGCTAGC	-0.127
CATTGGCA	-0.0365
AGTCTTGG	-0.172
GGCCAAAC	-0.129
CACATCGA	0.0179
CAAAGTTG	0.0466
AAGAACAT	0.205
GTCCGAGA	0.0489

Sequence	PBM E-score
ATATTCGC	0.191
AAGGGGAT	0.205
AATAGTCG	0.175
GCGAGCCC	-0.0609
CCTAGATA	-0.182
CGGTAACA	0.0498
GCCCGTGA	-0.134
AAGCACTT	-0.102
AGAGCCAC	-0.195
AAGAGGCG	-0.0266
CTGTAGGA	0.0349
CGTGACCA	0.0193
GCCTAGCC	-0.0193
AGCTCATA	0.12
AGGGAGCA	-0.261
TTCGTAAA	-0.00824
AGCATTGA	-0.0178
ACACAACT	0.0781
AGTGCGCG	-0.0388

4 records drawn at random from those above, as already listed:
Sequence	PBM E-score
GCGAGCCC	-0.0609
CGTGACCA	0.0193
AATAGTCG	0.175
GCCTAGCC	-0.0193
